Data from publication PMC7473771.
No constants are given. Whether binding was seen depends on the method and setting. In cells and extracts the contact can be indirect. These calls come from enrichment with a bait or labelling near it, and not all partners need be listed.

Protein sequences, listed by entry. Tags and fused reporters are not part of them. Lines headed by an entry give the natural chain unless they say otherwise; changes in a name come on top. Chains listed by the source or under a name are the forms on record and can include a tag or linker.
UniProt Q9NSY1: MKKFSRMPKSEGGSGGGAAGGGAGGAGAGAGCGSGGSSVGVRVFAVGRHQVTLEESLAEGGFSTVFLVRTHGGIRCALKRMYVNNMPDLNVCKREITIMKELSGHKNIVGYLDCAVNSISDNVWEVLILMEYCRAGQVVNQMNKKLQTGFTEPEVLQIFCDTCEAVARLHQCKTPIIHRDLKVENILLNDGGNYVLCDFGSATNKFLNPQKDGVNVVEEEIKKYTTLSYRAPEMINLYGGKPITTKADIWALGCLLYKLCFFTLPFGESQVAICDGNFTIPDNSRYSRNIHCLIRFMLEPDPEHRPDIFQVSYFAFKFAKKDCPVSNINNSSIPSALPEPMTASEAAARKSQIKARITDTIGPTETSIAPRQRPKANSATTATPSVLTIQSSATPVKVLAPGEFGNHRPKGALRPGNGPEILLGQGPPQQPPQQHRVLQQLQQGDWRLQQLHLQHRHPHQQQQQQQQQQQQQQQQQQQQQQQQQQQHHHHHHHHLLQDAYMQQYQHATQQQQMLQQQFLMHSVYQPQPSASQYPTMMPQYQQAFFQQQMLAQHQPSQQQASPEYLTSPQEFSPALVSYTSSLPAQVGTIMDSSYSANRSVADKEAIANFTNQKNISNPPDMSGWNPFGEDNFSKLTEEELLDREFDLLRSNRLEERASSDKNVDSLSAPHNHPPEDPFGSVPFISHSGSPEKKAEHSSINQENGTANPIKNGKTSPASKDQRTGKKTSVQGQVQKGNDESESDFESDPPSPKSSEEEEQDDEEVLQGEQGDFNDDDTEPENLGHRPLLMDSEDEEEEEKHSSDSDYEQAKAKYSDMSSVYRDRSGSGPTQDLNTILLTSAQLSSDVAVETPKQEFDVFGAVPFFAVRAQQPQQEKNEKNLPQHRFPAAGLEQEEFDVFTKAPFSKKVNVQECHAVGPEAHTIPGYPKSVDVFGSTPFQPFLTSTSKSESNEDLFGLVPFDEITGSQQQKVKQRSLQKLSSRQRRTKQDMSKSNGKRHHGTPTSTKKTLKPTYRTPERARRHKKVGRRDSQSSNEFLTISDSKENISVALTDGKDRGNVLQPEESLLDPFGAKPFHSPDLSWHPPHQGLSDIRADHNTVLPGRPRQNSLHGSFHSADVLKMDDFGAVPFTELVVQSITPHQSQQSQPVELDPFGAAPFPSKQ
Myc-BirA*-BMP2K-S (Q9NSY1, form named): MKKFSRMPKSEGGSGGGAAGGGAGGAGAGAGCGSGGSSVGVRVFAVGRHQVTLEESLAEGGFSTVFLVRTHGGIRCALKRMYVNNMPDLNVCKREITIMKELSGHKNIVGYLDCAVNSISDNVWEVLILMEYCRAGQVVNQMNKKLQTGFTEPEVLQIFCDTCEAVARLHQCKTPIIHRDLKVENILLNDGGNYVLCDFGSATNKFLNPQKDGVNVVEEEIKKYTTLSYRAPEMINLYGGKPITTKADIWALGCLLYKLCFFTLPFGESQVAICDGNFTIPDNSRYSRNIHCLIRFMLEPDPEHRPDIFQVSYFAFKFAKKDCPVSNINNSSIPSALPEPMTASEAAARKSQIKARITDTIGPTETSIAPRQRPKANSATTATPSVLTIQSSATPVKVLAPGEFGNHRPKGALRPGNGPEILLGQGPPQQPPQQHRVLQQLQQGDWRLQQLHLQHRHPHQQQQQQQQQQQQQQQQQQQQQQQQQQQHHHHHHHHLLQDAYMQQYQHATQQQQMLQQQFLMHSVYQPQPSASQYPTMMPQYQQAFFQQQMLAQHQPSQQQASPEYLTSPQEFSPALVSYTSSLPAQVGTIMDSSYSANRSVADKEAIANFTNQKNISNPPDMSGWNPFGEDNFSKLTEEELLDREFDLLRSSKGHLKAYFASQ
UniProt Q8N6T3: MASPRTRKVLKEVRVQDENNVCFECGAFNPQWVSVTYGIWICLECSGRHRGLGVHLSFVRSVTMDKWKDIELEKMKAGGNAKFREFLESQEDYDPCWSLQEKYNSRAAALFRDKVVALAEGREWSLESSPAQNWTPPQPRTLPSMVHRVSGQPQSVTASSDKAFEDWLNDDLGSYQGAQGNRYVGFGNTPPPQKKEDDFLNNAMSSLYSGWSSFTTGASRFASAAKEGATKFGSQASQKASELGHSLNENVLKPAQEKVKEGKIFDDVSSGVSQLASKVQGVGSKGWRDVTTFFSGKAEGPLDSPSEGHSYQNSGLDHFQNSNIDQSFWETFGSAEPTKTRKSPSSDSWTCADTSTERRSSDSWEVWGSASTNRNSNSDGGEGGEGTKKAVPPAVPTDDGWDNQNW

What was measured:
Experiment in all cases: proximity labelling; BioID: BMP2K-L or -S tagged with BirA* at the N- or C-terminus, stably expressed in HEK293 cells; biotin labelling, pull down of biotinylated proteins on streptavidin-coupled magnetic beads, LC-MS/MS; Mascot scores of the Myc-BirA* or BirA*-HA controls subtracted; hits common to N- and C-terminally tagged baits
BMP2K-S-BirA*-HA (human) = BMP2K-S-BirA*-HA (human) (UniProt Q9NSY1)
[1] = biological target: Myc-BirA*-BMP2K-S (human) (UniProt Q9NSY1)
[2] = biological target: Myc-BirA*-BMP2K-L (human) (UniProt Q9NSY1)
BMP2K-L-BirA*-HA (human) = BMP2K-L-BirA*-HA (human) (UniProt Q9NSY1)

Measured: binding

ARFGAP1 (from UniProt Q8N6T3 1-406)
binds: BMP2K-S-BirA*-HA (human) | [1]

B1: PICALM (protein, UniProt Q13492 1-652)
chain: MSGQSLTDRITAAQHSVTGSAVSKTVCKATTHEIMGPKKKHLDYLIQCTNEMNVNIPQLADSLFERTTNSSWVVVFKSLITTHHLMVYGNERFIQYLASRNTLFNLSNFLDKSGLQGYDMSTFIRRYSRYLNEKAVSYRQVAFDFTKVKRGADGVMRTMNTEKLLKTVPIIQNQMDALLDFNVNSNELTNGVINAAFMLLFKDAIRLFAAYNEGIINLLEKYFDMKKNQCKEGLDIYKKFLTRMTRISEFLKVAEQVGIDRGDIPDLSQAPSSLLDALEQHLASLEGKKIKDSTAASRATTLSNAVSSLASTGLSLTKVDEREKQAALEEEQARLKALKEQRLKELAKKPHTSLTTAASPVSTSAGGIMTAPAIDIFSTPSSSNSTSKLPNDLLDLQQPTFHPSVHPMSTASQVASTWGDPFSATVDAVDDAIPSLNPFLTKSSGDVHLSISSDVSTFTTRTPTHEMFVGFTPSPVAQPHPSAGLNVDFESVFGNKSTNVIVDSGGFDELGGLLKPTVASQNQNLPVAKLPPSKLVSDDLDSSLANLVGNLGIGNGTTKNDVNWSQPGEKKLTGGSNWQPKVAPTTAWNAATMAPPVMAYPATTPTGMIGYGIPPQMGSVPVMTQPTLIYSQPVMRPPNPFGPVSGAQIQFM
binds: all assays above

B2: AGFG1 (HRB) (protein, UniProt P52594 1-562)
chain: MAASAKRKQEEKHLKMLRDMTGLPHNRKCFDCDQRGPTYVNMTVGSFVCTSCSGSLRGLNPPHRVKSISMTTFTQQEIEFLQKHGNEVCKQIWLGLFDDRSSAIPDFRDPQKVKEFLQEKYEKKRWYVPPEQAKVVASVHASISGSSASSTSSTPEVKPLKSLLGDSAPTLHLNKGTPSQSPVVGRSQGQQQEKKQFDLLSDLGSDIFAAPAPQSTATANFANFAHFNSHAAQNSANADFANFDAFGQSSGSSNFGGFPTASHSPFQPQTTGGSAASVNANFAHFDNFPKSSSADFGTFNTSQSHQTASAVSKVSTNKAGLQTADKYAALANLDNIFSAGQGGDQGSGFGTTGKAPVGSVVSVPSQSSASSDKYAALAELDSVFSSAATSSNAYTSTSNASSNVFGTVPVVASAQTQPASSSVPAPFGATPSTNPFVAAAGPSVASSTNPFQTNARGATAATFGTASMSMPTGFGTPAPYSLPTSFSGSFQQPAFPAQAAFPQQTAFSQQPNGAGFAAFGQTKPVVTPFGQVAAAGVSSNPFMTGAPTGQFPTGSSSTNPFL
binds: all assays above

B3: SEC24B (protein, UniProt O95487 1-1268)
chain: MSAPAGSSHPAASARIPPKFGGAAVSGAAAPAGPGAGPAPHQQNGPAQNQMQVPSGYGLHHQNYIAPSGHYSQGPGKMTSLPLDTQCGDYYSALYTVPTQNVTPNTVNQQPGAQQLYSRGPPAPHIVGSTLGSFQGAASSASHLHTSASQPYSSFVNHYNSPAMYSASSSVASQGFPSTCGHYAMSTVSNAAYPSVSYPSLPAGDTYGQMFTSQNAPTVRPVKDNSFSGQNTAISHPSPLPPLPSQQHHQQQSLSGYSTLTWSSPGLPSTQDNLIRNHTGSLAVANNNPTITVADSLSCPVMQNVQPPKSSPVVSTVLSGSSGSSSTRTPPTANHPVEPVTSVTQPSELLQQKGVQYGEYVNNQASSAPTPLSSTSDDEEEEEEDEEAGVDSSSTTSSASPMPNSYDALEGGSYPDMLSSSASSPAPDPAPEPDPASAPAPASAPAPVVPQPSKMAKPFGYGYPTLQPGYQNATAPLISGVQPSNPVYSGFQQYPQQYPGVNQLSSSIGGLSLQSSPQPESLRPVNLTQERNILPMTPVWAPVPNLNADLKKLNCSPDSFRCTLTNIPQTQALLNKAKLPLGLLLHPFRDLTQLPVITSNTIVRCRSCRTYINPFVSFIDQRRWKCNLCYRVNDVPEEFMYNPLTRSYGEPHKRPEVQNSTVEFIASSDYMLRPPQPAVYLFVLDVSHNAVEAGYLTILCQSLLENLDKLPGDSRTRIGFMTFDSTIHFYNLQEGLSQPQMLIVSDIDDVFLPTPDSLLVNLYESKELIKDLLNALPNMFTNTRETHSALGPALQAAFKLMSPTGGRVSVFQTQLPSLGAGLLQSREDPNQRSSTKVVQHLGPATDFYKKLALDCSGQQTAVDLFLLSSQYSDLASLACMSKYSAGCIYYYPSFHYTHNPSQAEKLQKDLKRYLTRKIGFEAVMRIRCTKGLSMHTFHGNFFVRSTDLLSLANINPDAGFAVQLSIEESLTDTSLVCFQTALLYTSSKGERRIRVHTLCLPVVSSLADVYAGVDVQAAICLLANMAVDRSVSSSLSDARDALVNAVVDSLSAYGSTVSNLQHSALMAPSSLKLFPLYVLALLKQKAFRTGTSTRLDDRVYAMCQIKSQPLVHLMKMIHPNLYRIDRLTDEGAVHVNDRIVPQPPLQKLSAEKLTREGAFLMDCGSVFYIWVGKGCDNNFIEDVLGYTNFASIPQKMTHLPELDTLSSERARSFITWLRDSRPLSPILHIVKDESPAKAEFFQHLIEDRTEAAFSYYEFLLHVQQQICK
binds: BMP2K-S-BirA*-HA (human) | [1]

B4: NUMB (protein, UniProt P49757 1-651)
chain: MNKLRQSFRRKKDVYVPEASRPHQWQTDEEGVRTGKCSFPVKYLGHVEVDESRGMHICEDAVKRLKAERKFFKGFFGKTGKKAVKAVLWVSADGLRVVDEKTKDLIVDQTIEKVSFCAPDRNFDRAFSYICRDGTTRRWICHCFMAVKDTGERLSHAVGCAFAACLERKQKREKECGVTATFDASRTTFTREGSFRVTTATEQAEREEIMKQMQDAKKAETDKIVVGSSVAPGNTAPSPSSPTSPTSDATTSLEMNNPHAIPRRHAPIEQLARQGSFRGFPALSQKMSPFKRQLSLRINELPSTMQRKTDFPIKNAVPEVEGEAESISSLCSQITNAFSTPEDPFSSAPMTKPVTVVAPQSPTFQANGTDSAFHVLAKPAHTALAPVAMPVRETNPWAHAPDAANKEIAATCSGTEWGQSSGAASPGLFQAGHRRTPSEADRWLEEVSKSVRAQQPQASAAPLQPVLQPPPPTAISQPASPFQGNAFLTSQPVPVGVVPALQPAFVPAQSYPVANGMPYPAPNVPVVGITPSQMVANVFGTAGHPQAAHPHQSPSLVRQQTFPHYEASSATTSPFFKPPAQHLNGSAAFNGVDDGRLASADRHTEVPTGTCPVDPFEAQWAALENKSKQRTNPSPTNPFSSDLQKTFEIEL
binds: all assays above
